Data as given in PubChem BioAssay AID1224829 (NIAID, 2016)
Assay: 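Follow-up of TLR4-NF-kappaB regulators using six separate siRNAs for each gene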 (follow-up of hits). System: mouse RAW264.7 G9 macrophage reporter cells. Reagents: single siRNA against mouse genes, 100 nM. Timing: 2 days of siRNA knock-down, then 40 min of LPS before fixing. Conditions: LPS (Salmonella minnesota R595) at 10 ng/ml. Read-out: 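Imaging of GFP-p65 after 40 min of LPS; nuclear over perinuclear ring intensity ratio, scaled to plate median and non-targeting control wells, given as z-score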. Direction: p65 translocation z-score and gene median z-score, per vendor: higher = more nuclear NF-kappaB p65 after LPS. Active means: 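An siRNA is called active when the mean z-score of its two replicates is above 2 or below -2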. Calls: active = changed p65 translocation (either direction); inactive = no clear change.
Here is an unselected part of about 3,800 deposited reagents. 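Calls cover raised and lowered translocation; gene median uses one vendor's three siRNAs; qiagen siRNAs acted more weakly than ambion siRNAs.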 Reagents against one gene are numbered here.

| Gene | reagent | siRNA vendor or control pool | p65 translocation z-score, replicate mean | p65 translocation z-score, replicate 1 | p65 translocation z-score, replicate 2 | gene median z-score, per vendor | outcome |
| --- | --- | --- | --- | --- | --- | --- | --- |
| Chst14 (carbohydrate sulfotransferase 14) | 1 | ambion single siRNA | -3.14 | -2.02 | -4.26 | -1.71 | active |
| Chst14 (carbohydrate sulfotransferase 14) | 2 | ambion single siRNA | -1.06 | -2.84 | 0.72 | -1.71 | inactive |
| Chst14 (carbohydrate sulfotransferase 14) | 3 | ambion single siRNA | -1.27 | -1.4 | -1.13 | -1.71 | inactive |
| Chst14 (carbohydrate sulfotransferase 14) | 4 | qiagen single siRNA | 0.476 | -0.212 | 1.16 | -0.212 | inactive |
| Chst14 (carbohydrate sulfotransferase 14) | 5 | qiagen single siRNA | -0.308 | -2.15 | 1.53 | -0.212 | inactive |
| Chst14 (carbohydrate sulfotransferase 14) | 6 | qiagen single siRNA | -5.21 | -5.21 | – | -0.212 | active |
| Cpq (carboxypeptidase Q) | 1 | ambion single siRNA | -0.192 | -0.959 | 0.575 | 0.00685 | inactive |
| Cpq (carboxypeptidase Q) | 2 | ambion single siRNA | 1.99 | 2.6 | 1.38 | 0.00685 | inactive |
| Cpq (carboxypeptidase Q) | 3 | ambion single siRNA | -0.605 | -0.561 | -0.65 | 0.00685 | inactive |
| Cpq (carboxypeptidase Q) | 4 | qiagen single siRNA | 2.03 | 1.47 | 2.58 | 1.93 | active |
| Cpq (carboxypeptidase Q) | 5 | qiagen single siRNA | 2.54 | 2.69 | 2.38 | 1.93 | active |
| Cpq (carboxypeptidase Q) | 6 | qiagen single siRNA | -0.661 | -0.317 | -1.01 | 1.93 | inactive |

Sorted by “p65 translocation z-score, replicate mean” (low to high): some entries from above
| Gene | reagent | siRNA vendor or control pool | p65 translocation z-score, replicate mean | p65 translocation z-score, replicate 1 | p65 translocation z-score, replicate 2 | gene median z-score, per vendor | outcome |
| --- | --- | --- | --- | --- | --- | --- | --- |
| Chst14 (carbohydrate sulfotransferase 14) | 6 | qiagen single siRNA | -5.21 | -5.21 | – | -0.212 | active |
| Chst14 (carbohydrate sulfotransferase 14) | 5 | qiagen single siRNA | -0.308 | -2.15 | 1.53 | -0.212 | inactive |
| Cpq (carboxypeptidase Q) | 1 | ambion single siRNA | -0.192 | -0.959 | 0.575 | 0.00685 | inactive |
| Cpq (carboxypeptidase Q) | 2 | ambion single siRNA | 1.99 | 2.6 | 1.38 | 0.00685 | inactive |

The listing continues:
| Gene | reagent | siRNA vendor or control pool | p65 translocation z-score, replicate mean | p65 translocation z-score, replicate 1 | p65 translocation z-score, replicate 2 | gene median z-score, per vendor | outcome |
| --- | --- | --- | --- | --- | --- | --- | --- |
| Med14 (mediator complex subunit 14) | 1 | ambion single siRNA | -0.983 | -1.57 | -0.397 | -1.78 | inactive |
| Med14 (mediator complex subunit 14) | 2 | ambion single siRNA | -2.72 | -2 | -3.45 | -1.78 | active |
| Med14 (mediator complex subunit 14) | 3 | ambion single siRNA | -2 | -3.08 | -0.913 | -1.78 | inactive |
| Med14 (mediator complex subunit 14) | 4 | qiagen single siRNA | -7.78 | -7.78 | – | -5.97 | active |
| Med14 (mediator complex subunit 14) | 5 | qiagen single siRNA | -3.59 | -3.03 | -4.16 | -5.97 | active |
| Med14 (mediator complex subunit 14) | 6 | qiagen single siRNA | -8.54 | -8.54 | – | -5.97 | active |
| Lhfpl4 (lipoma HMGIC fusion partner-like protein 4) | 1 | ambion single siRNA | 0.154 | 0.311 | -0.0035 | -3.22 | inactive |
| Lhfpl4 (lipoma HMGIC fusion partner-like protein 4) | 2 | ambion single siRNA | -4.41 | -5.79 | -3.03 | -3.22 | active |
| Lhfpl4 (lipoma HMGIC fusion partner-like protein 4) | 3 | ambion single siRNA | -3.4 | -3.4 | -3.4 | -3.22 | active |
| Lhfpl4 (lipoma HMGIC fusion partner-like protein 4) | 4 | qiagen single siRNA | 3.14 | 1.87 | 4.41 | 1.22 | active |
| Lhfpl4 (lipoma HMGIC fusion partner-like protein 4) | 5 | qiagen single siRNA | 2.3 | 0.583 | 4.02 | 1.22 | active |
| Lhfpl4 (lipoma HMGIC fusion partner-like protein 4) | 6 | qiagen single siRNA | -3.56 | -2.86 | -4.25 | 1.22 | active |
